From article PMC8194061

Chains of the proteins cited; added tags and fusions are not shown.
UniProt Q05BC3: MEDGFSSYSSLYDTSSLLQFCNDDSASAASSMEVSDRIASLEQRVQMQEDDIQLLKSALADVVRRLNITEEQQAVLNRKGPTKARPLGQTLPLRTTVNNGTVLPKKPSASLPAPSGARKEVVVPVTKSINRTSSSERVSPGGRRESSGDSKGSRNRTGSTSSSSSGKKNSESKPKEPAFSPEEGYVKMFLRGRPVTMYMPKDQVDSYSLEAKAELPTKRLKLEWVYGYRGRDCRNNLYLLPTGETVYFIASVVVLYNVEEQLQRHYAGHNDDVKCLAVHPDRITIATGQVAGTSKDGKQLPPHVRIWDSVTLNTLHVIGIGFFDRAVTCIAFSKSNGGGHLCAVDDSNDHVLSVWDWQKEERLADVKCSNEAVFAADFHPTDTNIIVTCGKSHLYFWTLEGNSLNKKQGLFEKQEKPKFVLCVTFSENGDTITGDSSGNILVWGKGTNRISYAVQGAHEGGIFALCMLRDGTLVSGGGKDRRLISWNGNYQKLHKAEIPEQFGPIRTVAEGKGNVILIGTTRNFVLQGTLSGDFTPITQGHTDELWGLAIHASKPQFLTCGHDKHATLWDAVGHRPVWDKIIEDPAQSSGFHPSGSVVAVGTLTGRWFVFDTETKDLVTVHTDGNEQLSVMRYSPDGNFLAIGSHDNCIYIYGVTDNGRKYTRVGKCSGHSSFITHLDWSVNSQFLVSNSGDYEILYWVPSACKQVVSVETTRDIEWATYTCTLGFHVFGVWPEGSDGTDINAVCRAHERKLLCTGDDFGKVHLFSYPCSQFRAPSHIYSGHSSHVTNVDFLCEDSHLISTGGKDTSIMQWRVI
UniProt P07437: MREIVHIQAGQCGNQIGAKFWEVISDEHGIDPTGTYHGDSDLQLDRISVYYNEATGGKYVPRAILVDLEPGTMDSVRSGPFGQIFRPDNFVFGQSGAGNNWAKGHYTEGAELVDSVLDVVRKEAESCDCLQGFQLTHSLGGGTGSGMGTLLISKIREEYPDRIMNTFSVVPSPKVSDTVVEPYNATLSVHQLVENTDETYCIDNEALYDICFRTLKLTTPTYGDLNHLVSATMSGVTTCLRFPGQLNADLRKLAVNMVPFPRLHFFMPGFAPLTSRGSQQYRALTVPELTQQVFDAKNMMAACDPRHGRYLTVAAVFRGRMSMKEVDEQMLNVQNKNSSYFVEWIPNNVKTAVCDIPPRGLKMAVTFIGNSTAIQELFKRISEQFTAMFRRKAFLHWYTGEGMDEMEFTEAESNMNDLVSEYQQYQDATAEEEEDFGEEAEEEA
UniProt P60953: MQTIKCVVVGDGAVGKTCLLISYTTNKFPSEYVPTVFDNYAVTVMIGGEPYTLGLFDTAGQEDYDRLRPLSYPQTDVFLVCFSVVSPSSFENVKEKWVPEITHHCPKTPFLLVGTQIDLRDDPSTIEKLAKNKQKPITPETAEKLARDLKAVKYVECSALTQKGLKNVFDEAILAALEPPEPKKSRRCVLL
UniProt Q9Y266: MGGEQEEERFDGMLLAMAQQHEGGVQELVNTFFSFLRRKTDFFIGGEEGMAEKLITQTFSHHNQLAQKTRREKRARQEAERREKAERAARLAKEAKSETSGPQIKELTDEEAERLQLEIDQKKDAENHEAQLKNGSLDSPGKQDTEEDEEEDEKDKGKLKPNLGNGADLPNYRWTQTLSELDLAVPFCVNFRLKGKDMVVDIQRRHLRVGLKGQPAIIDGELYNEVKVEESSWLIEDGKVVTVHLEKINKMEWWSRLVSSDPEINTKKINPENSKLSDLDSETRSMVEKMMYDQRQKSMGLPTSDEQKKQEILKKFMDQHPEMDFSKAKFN

Molecular target: EML1-3DDK fusion protein (echinoderm microtubule associated protein like 1, mouse) (mouse) (UniProt Q05BC3)
Assay: affinity purification with mass spectrometry; IP of EML1-3DDK from lysate of transfected HEK293 cells with anti-FLAG (DDK) M2 antibody (Pierce Crosslink Immunoprecipitation Kit); IP products of two independent experiments resolved on 10% SDS-PAGE, in-gel trypsin digestion, LC-ESI-MS/MS, search against the human UniProt database

binding	Substance
binds	TUBB (tubulin protein) (from UniProt P07437 1-444)
binds	CDC42 (actin polymerization regulator) (from UniProt P60953 1-191)
binds	NUDC (nuclear distribution C), found in the EML1-IP product (from UniProt Q9Y266 1-331)

These are yes or no findings as the source states them, for the method shown. Binding seen in cells or lysates may run through a third protein. A yes stands for co-enrichment or nearness to the bait. Other partners may have been found.
